Reference: PubChem BioAssay AID540276 (National Center for Advancing Translational Sciences (NCATS), 2011)
About 5,400 (1.8%) of roughly 300,000 compounds were called active. Inconclusive means that the source gave no clear call. Such entries were picked first, then a sample of the others. The call rests on the fitted dose curve; tested in HEK293 cells. A potency beside an inconclusive call is a rough fit, not a confirmed value.
On the % scale 0 is the no-effect control and ±100 the full control effect; potency means the concentration at half of the fitted maximal effect.

Test: qHTS for inhibitors of binding or entry into cells for Marburg Virus
Conditions: Marburg virus pseudotyped entry inhibition, cell reporter; activity change, negative = inhibition: at 37.8 µM (top of the series) unless noted
In the case of Cc1ccc(C)c(NC(=O)C2CCN(S(=O)(=O)c3c(C)noc3/C=C/c3cccs3)CC2)c1, the “activity change, negative = inhibition” value is reported as inactive: -1.29% [at 46.1 µM]. In the case of CCOc1ccc(CNc2ccc(S(N)(=O)=O)cc2)cc1, the Potency is reported as inconclusive: 6.31 µM [inhibitor, single point]. With COC(=O)CSc1nnc(COc2cccc3ccccc23)o1 the Potency was inconclusive: 12.6 µM [activator, single point]. In the case of O=C1CSC(c2cn(-c3ccccc3)nc2-c2ccccc2)N1Cc1ccco1 (configuration not stated), the Potency is reported as inconclusive: 14.1 µM [inhibitor, single point]. With Cc1cn2nc(N)c3ccccc3c2n1 the “activity change, negative = inhibition” value was inactive: 2.24% [at 46.1 µM]. In the case of O=C(NCC1(N2CCOCC2)CCCCC1)c1ccc(Cl)c(S(=O)(=O)NCc2ccco2)c1, the Potency is reported as “inactive”. In the case of Cc1ccccc1-n1c(SCC(=O)N2CCOCC2)nc(O)c(Cc2ccccc2)c1=O, the Potency is reported as inconclusive: 0.794 µM [inhibitor, full curve, poor fit]. For CCCOc1ccc(C(=O)Nc2ccc(NC(=O)c3cccs3)cc2)cc1, the “activity change, negative = inhibition” value was inactive: 0.57% [at 46.1 µM]. With CC(OC(=O)c1ccc(O)cc1)C(=O)Nc1cc(C(F)(F)F)ccc1Cl (configuration not stated) the Potency was inconclusive: 25.1 µM [inhibitor, single point]. In the case of CCOC(=O)C(C)c1nn(C)c(=O)c2ccccc12 (configuration not stated), the Potency is reported as inconclusive: 35.5 µM [inhibitor, partial curve, poor fit]. In the case of Cc1c(Cl)cccc1NC(=S)N(CCN(C)C)C(C)c1ccccn1 (configuration not stated), the Potency is reported as inconclusive: 11.2 µM [inhibitor, partial curve, poor fit]. For CCOC(=O)C(NC(=O)c1ccccc1)(OCc1ccccc1)C(F)(F)F (configuration not stated), the Potency was inconclusive: 3.16 µM [inhibitor, single point]. For O=C(CSc1nc2ccccc2s1)N1CCOCC1, the Potency was inconclusive: 18.3 µM [activator, single point]. In the case of CC12CCC(=O)N1C(C(=O)OCc1c(Cl)cccc1Cl)CS2 (configuration not stated), the Potency is reported as inconclusive: 4.47 µM [activator, single point]. With N#C/C(=N\Nc1ccc([N+](=O)[O-])cc1)C(=N)N1CCOCC1 the “activity change, negative = inhibition” value was inactive: 1.28%. For Cc1cccc(NC(=O)C2CC(=O)N(Cc3ccccc3)C2)n1 (configuration not stated), the “activity change, negative = inhibition” value was inactive: 1.05%. For CCCC(=O)NC(c1cccs1)c1cc(Cl)c2cccnc2c1O (configuration not stated), the Potency was active: 3.55 µM. With O=C(NNc1c2ccccc2nc2ccccc12)c1ccccc1O the Potency was inconclusive: 22.4 µM [inhibitor, partial curve, poor fit]. In the case of O=C(Nc1ccc([N+](=O)[O-])cc1)c1cccc(S(=O)(=O)Nc2cccnc2)c1, the Potency is reported as inconclusive: 8.91 µM [inhibitor, partial curve, poor fit]. In the case of Cc1ccc(N=CC=C2OC(C)(C)C(C)(C)O2)cc1, the Potency is reported as inconclusive: 25.9 µM [inhibitor, single point]. With Nc1nnc(SCC(=O)OCc2ccc(F)cc2)s1 the “activity change, negative = inhibition” value was inactive: 7.65%. For CCc1nn(CC(=O)NCCc2ccc(SC)cc2)c(=O)c2cc3sccc3n12, the “activity change, negative = inhibition” value was inactive: -17% [at 46.1 µM]. With COc1cccc(NC(=O)CN(C)C(=O)c2ccc(S(=O)(=O)Nc3ccccc3F)cc2)c1 the Potency was inconclusive: 10 µM [inhibitor, partial curve]. In the case of Cn1nnnc1SCC(=O)Nc1ccc(Br)cc1Br, the “activity change, negative = inhibition” value is reported as inactive: 7.14%. For COc1cc(NC(=O)CCN2CCN(CCO)CC2)cc(OC)c1, the Potency was inconclusive: 0.0891 µM [inhibitor, full curve, poor fit]. With Cc1nc(NCCCN2CCOCC2)c2cnn(-c3ccccc3)c2n1 the Potency was inconclusive: 35.5 µM [activator, single point]. In the case of N#Cc1nc(-c2cccc3ccccc23)oc1NCCN1CCCCC1, the Potency is reported as inconclusive: 18.3 µM [inhibitor, single point]. In the case of CCOc1ccc(OCC(=O)Nc2ccc(S(=O)(=O)Nc3cc(C)on3)cc2)cc1, the “activity change, negative = inhibition” value is reported as inactive: -14.1% [at 46.1 µM]. In the case of CCOC(=O)C1(Cc2cccc(Cl)c2)CCCN(C(=O)C(C)(C)C)C1 (configuration not stated), the Potency is reported as inconclusive: 15.8 µM [inhibitor, single point]. For Nc1nc2cc(Cl)c(Br)cc2o1, the “activity change, negative = inhibition” value was inactive: -5.86%. For O=C(Cc1ccccc1)Nc1ccc(-c2nnc(-c3ccco3)o2)cc1, the “activity change, negative = inhibition” value was inactive: -12.7% [at 46.1 µM]. For COC(=O)CCCCCc1ccc(C(C)=O)s1, the “activity change, negative = inhibition” value was inactive: 1.65% [at 46.1 µM]. In the case of N#CCSc1nnc(-c2cnccn2)n1Cc1ccccc1, the Potency is reported as inconclusive: 5.17 µM [inhibitor, partial curve, poor fit]. In the case of CCN1CCN(CC(=O)N2N=C(c3cccs3)CC2c2ccc(OC)c(OC)c2)C(=O)C1=O (configuration not stated), the “activity change, negative = inhibition” value is reported as inactive: 7.03% [at 46.1 µM]. In the case of COc1ccc(C)cc1NC(=O)c1ccc(CN2CCc3ccccc3C2)cc1, the Potency is reported as inconclusive: 6.31 µM [activator, single point]. In the case of CCN(CC)CCCN1C(=O)C(=O)/C(=C(/O)c2ccccc2)[C@@H]1c1cc(OC)ccc1OC, the Potency is reported as inconclusive: 3.98 µM [activator, single point]. For CCCNC(=O)COC(=O)c1ccc(Cl)c(S(=O)(=O)N2CCCC2)c1, the “activity change, negative = inhibition” value was inactive: -0.869%. In the case of Cc1ccc(Cl)cc1N1CCN(C(=O)CCS(=O)(=O)c2cc(Br)cc3c2N(C(=O)C2CC2)CC3)CC1, the Potency is reported as inconclusive: 10 µM [inhibitor, partial curve, poor fit]. In the case of CCc1ccc(C(=O)COC(=O)c2ccc(-c3nnc(-c4ccccc4)o3)cc2)cc1, the Potency is reported as inconclusive: 1.03 µM [activator, full curve, poor fit]. With O=C(N/N=C/c1ccc(N2CCOCC2)s1)c1ccccc1Cl the “activity change, negative = inhibition” value was inactive: 0.104%. In the case of CCc1cccc2c(SCC(=O)NCC3CCCO3)nc(-c3ccc(F)cc3)nc12 (configuration not stated), the Potency is reported as inconclusive: 29.1 µM [inhibitor, single point]. With CC(C)(C)C1=Nn2c(nnc2C2CCCCC2)SC1 the Potency was inconclusive: 29.1 µM [activator, single point]. In the case of CC(=O)Nc1cccc2c1OCCO2, the “activity change, negative = inhibition” value is reported as inactive: -4.15%. With COc1ccc(-c2nn(-c3ccccc3)cc2/C=N/Nc2ccccn2)cc1OC the Potency was active: 13 µM. In the case of Nc1nc(-c2ccccc2)c(N=Nc2ccccc2Cl)s1, the Potency is reported as inconclusive: 35.5 µM [inhibitor, single point]. With O=C1CCC(C(=O)OCC(=O)N2N=C3/C(=C/c4ccccc4)CCCC3C2c2ccccc2)N1 (configuration not stated) the Potency was inconclusive: 23.1 µM [inhibitor, single point]. In the case of CCCCN(C(=O)c1ccc([N+](=O)[O-])s1)c1c(N)n(CCCC)c(=O)[nH]c1=O, the “activity change, negative = inhibition” value is reported as inactive: -67.6%. With CCc1nn(C(C)C(=O)NC(C)CCc2ccco2)c(=O)c2cc3occc3n12 (configuration not stated) the “activity change, negative = inhibition” value was inactive: -11.8%. With CC(C)C(=O)Nc1ccnc(-c2cccnc2)n1 the Potency was inconclusive: 0.326 µM [activator, single point]. For C/C(=N\NC(=O)c1cccs1)C(C)(C)C, the Potency was inconclusive: 15.8 µM [activator, single point]. With O=C(O)CCC(=O)Nc1ccc(N=Nc2ccccc2)cc1 the “activity change, negative = inhibition” value was inactive: 1.42% [at 46.1 µM]. With Nc1nc(Cl)c(C=O)c(N2CCCCC2)n1 the “activity change, negative = inhibition” value was inactive: -0.746% [at 46.1 µM]. For O=C(Nc1ccc([N+](=O)[O-])cn1)c1ccc(Br)o1, the Potency was inconclusive: 0.1 µM [activator, full curve, poor fit]. In the case of Nc1nonc1-n1nnc(C(=O)N/N=C/C=C/c2ccccc2)c1CSC1=NCCS1, the Potency is reported as inconclusive: 10 µM [inhibitor, partial curve, poor fit]. With C#CCn1c(=NC(=O)c2ccc(S(=O)(=O)N3CCCc4ccccc43)cc2)sc2cc(S(N)(=O)=O)ccc21 the Potency was inconclusive: 10.3 µM [inhibitor, partial curve, poor fit]. In the case of O=C(CN(C(=O)c1csnn1)c1cccc2ccccc12)NC1CCCC1, the Potency is reported as inconclusive: 3.55 µM [inhibitor, single point]. In the case of O=C(Cc1ccccc1)Nc1cccnc1, the “activity change, negative = inhibition” value is reported as inactive: -1.52% [at 46.1 µM]. With CCOC(=O)COc1ccc(CC)cc1C(=O)c1ccn2nc(-c3ccc(F)cc3)cc2n1 the Potency was inconclusive: 6.31 µM [inhibitor, partial curve, poor fit]. For Cc1ccc(S(=O)(=O)CS(=O)(=O)c2ccc(C)cc2)cc1, the “activity change, negative = inhibition” value was inactive: 0.648%. In the case of COc1ccc(N=Nc2nc3ccc(Br)cc3n2C)cc1, the Potency is reported as inconclusive: 29.1 µM [inhibitor, single point]. With CC=Cc1cc2ccccc2c2c(C(=O)OC)c(C(=O)OC)c(C(=O)OC)n12 the Potency was inconclusive: 2.66 µM [inhibitor, single point]. In the case of Cc1[nH]c2ccccc2c1-c1csc(N)n1, the Potency is reported as inconclusive: 6.31 µM [activator, single point]. With CC(=O)c1ccc(NC(=O)CSc2nnc(-c3ccoc3C)n2Cc2ccccc2)cc1 the “activity change, negative = inhibition” value was inactive: -23.2%. With COc1ccc(CNC(=O)CCCn2nc(C)n3c(cc4sccc43)c2=O)cc1 the Potency was inconclusive: 7.08 µM [inhibitor, full curve, poor fit]. For CCOC(=O)c1cc2n(c1/N=C/N(C)C)-c1ccccc1C2=O, the Potency was inconclusive: 0.0052 µM [inhibitor, full curve, poor fit]. With COc1ccccc1/C=C/c1nc(C#N)c(NC2CCCCC2)o1 the Potency was inconclusive: 7.08 µM [inhibitor, partial curve, poor fit]. With COC(=O)C1=C(C)N(C)C(=O)NC1c1ccc(C)cc1 (configuration not stated) the Potency was inconclusive: 25.9 µM [activator, partial curve, poor fit]. In the case of COc1cccc(OCc2cc(/C=N/Nc3ccc(C(=O)O)cc3)ccc2OC)c1, the “activity change, negative = inhibition” value is reported as inactive: -2.26%. In the case of Cc1cccc(NC(=O)CSC2=Nc3ccccc3C3=NC(CC(=O)NCc4cccs4)C(=O)N23)c1 (configuration not stated), the “activity change, negative = inhibition” value is reported as inactive: -2.14% [at 46.1 µM]. With COc1ccc(OC(=O)N2C/C(=C/c3ccccc3)C(=O)/C(=C\c3ccccc3)C2)cc1 the Potency was inconclusive: 10 µM [inhibitor, partial curve, poor fit]. In the case of CCOc1ccc2c(c1)c(C(C)=O)c(C)n2-c1ccccc1, the “activity change, negative = inhibition” value is reported as inactive: 0.413%. In the case of COc1ccc(N2CCN(C(=O)CSc3nc4[nH]ncc4c(=O)n3-c3cccc4ccccc34)CC2)cc1, the Potency is reported as inconclusive: 17.8 µM [inhibitor, single point].
